From PMC7803970 come the findings set out here.

Amino acid sequences for entries named in this document (tags omitted).
UniProt Q8R4B8: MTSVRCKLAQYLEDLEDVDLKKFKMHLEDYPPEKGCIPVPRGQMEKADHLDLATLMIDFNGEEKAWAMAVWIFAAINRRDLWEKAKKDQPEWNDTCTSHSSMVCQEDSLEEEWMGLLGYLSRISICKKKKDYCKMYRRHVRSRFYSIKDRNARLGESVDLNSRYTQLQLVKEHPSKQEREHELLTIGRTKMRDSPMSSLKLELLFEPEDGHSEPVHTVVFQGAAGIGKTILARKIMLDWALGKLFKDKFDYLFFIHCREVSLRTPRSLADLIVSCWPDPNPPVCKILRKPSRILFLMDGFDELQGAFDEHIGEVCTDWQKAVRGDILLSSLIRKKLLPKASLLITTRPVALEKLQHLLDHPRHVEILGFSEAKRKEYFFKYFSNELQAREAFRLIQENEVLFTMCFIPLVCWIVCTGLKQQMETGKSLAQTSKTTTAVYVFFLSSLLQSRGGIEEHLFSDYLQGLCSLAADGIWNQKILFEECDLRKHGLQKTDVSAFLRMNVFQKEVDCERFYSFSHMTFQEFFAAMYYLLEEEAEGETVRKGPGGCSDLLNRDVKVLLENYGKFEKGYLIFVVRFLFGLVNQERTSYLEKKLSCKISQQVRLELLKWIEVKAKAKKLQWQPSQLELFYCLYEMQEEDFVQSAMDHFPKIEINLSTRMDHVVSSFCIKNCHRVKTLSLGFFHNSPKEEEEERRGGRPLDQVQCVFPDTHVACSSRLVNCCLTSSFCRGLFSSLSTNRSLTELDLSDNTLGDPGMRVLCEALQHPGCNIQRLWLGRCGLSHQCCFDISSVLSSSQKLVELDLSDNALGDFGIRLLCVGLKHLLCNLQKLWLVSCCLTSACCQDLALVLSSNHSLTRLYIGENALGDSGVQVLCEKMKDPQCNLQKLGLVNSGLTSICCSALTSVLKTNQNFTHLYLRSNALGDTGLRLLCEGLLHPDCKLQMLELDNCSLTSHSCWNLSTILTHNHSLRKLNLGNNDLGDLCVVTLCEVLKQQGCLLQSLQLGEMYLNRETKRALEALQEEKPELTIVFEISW

These are yes or no findings as the source states them, for the method shown. In cells and extracts the contact can be indirect. Some entries that bind do so weakly or less than the wild type.

The target of experiment [1] is T1, G protein-coupled receptor 120 (mouse (endogenous in Kupffer cell line BNCC340733)) (UniProt Q7TMA4).
T1 sequence: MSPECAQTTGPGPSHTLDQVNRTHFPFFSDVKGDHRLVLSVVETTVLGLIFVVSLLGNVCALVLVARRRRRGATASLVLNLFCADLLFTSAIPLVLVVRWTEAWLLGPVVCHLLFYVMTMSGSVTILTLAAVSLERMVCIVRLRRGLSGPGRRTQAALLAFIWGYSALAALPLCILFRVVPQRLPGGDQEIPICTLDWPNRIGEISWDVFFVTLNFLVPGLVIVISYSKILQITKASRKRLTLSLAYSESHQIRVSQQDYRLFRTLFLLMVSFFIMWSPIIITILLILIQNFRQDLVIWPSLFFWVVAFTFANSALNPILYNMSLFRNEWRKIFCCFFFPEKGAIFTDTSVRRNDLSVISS
The experiment can be described thus: co-IP; lysates of Kupffer cells pretreated with 50 uM DHA/AA for 4 h, then 100 ng/mL LPS for 12 h; immunoprecipitated with GPR120 antibody or NLRP3 antibody on protein A/G plus agarose; western blot for GPR120, NLRP3 and caspase-1. Background: Immunoblotting shows a protein as a band on a membrane.

In experiment [2] the target is NOD-like receptor pyrin domain-containing protein 3 (mouse (endogenous in Kupffer cell line BNCC340733)) (UniProt Q8R4B8). The description is as above.

For “NOD-like receptor pyrin domain-containing protein 3 (from UniProt Q8R4B8 1-1033)”, the binding result in experiment [1] is listed as “binds”.

B1: caspase-1 (enzyme, UniProt P29452 1-402)
chain: MADKILRAKRKQFINSVSIGTINGLLDELLEKRVLNQEEMDKIKLANITAMDKARDLCDHVSKKGPQASQIFITYICNEDCYLAGILELQSAPSAETFVATEDSKGGHPSSSETKEEQNKEDGTFPGLTGTLKFCPLEKAQKLWKENPSEIYPIMNTTTRTRLALIICNTEFQHLSPRVGAQVDLREMKLLLEDLGYTVKVKENLTALEMVKEVKEFAACPEHKTSDSTFLVFMSHGIQEGICGTTYSNEVSDILKVDTIFQMMNTLKCPSLKDKPKVIIIQACRGEKQGVVLLKDSVRDSEEDFLTDAIFEDDGIKKAHIEKDFIAFCSSTPDNVSWRHPVRGSLFIESLIKHMKEYAWSCDLEDIFRKVRFSFEQPEFRLQMPTADRVTLTKRFYLFPGH
Consider B1, for which, in experiment [2], the binding entry is given as “binds”.
